From article PMC10018360

Amino acid sequences for entries named in this document (tags omitted).
UniProt Q9Y3E1: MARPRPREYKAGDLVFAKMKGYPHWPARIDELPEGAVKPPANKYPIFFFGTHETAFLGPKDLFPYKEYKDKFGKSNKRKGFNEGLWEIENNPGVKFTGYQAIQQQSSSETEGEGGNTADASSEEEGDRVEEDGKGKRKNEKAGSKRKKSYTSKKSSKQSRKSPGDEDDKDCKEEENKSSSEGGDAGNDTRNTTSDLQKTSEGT
UniProt Q12888: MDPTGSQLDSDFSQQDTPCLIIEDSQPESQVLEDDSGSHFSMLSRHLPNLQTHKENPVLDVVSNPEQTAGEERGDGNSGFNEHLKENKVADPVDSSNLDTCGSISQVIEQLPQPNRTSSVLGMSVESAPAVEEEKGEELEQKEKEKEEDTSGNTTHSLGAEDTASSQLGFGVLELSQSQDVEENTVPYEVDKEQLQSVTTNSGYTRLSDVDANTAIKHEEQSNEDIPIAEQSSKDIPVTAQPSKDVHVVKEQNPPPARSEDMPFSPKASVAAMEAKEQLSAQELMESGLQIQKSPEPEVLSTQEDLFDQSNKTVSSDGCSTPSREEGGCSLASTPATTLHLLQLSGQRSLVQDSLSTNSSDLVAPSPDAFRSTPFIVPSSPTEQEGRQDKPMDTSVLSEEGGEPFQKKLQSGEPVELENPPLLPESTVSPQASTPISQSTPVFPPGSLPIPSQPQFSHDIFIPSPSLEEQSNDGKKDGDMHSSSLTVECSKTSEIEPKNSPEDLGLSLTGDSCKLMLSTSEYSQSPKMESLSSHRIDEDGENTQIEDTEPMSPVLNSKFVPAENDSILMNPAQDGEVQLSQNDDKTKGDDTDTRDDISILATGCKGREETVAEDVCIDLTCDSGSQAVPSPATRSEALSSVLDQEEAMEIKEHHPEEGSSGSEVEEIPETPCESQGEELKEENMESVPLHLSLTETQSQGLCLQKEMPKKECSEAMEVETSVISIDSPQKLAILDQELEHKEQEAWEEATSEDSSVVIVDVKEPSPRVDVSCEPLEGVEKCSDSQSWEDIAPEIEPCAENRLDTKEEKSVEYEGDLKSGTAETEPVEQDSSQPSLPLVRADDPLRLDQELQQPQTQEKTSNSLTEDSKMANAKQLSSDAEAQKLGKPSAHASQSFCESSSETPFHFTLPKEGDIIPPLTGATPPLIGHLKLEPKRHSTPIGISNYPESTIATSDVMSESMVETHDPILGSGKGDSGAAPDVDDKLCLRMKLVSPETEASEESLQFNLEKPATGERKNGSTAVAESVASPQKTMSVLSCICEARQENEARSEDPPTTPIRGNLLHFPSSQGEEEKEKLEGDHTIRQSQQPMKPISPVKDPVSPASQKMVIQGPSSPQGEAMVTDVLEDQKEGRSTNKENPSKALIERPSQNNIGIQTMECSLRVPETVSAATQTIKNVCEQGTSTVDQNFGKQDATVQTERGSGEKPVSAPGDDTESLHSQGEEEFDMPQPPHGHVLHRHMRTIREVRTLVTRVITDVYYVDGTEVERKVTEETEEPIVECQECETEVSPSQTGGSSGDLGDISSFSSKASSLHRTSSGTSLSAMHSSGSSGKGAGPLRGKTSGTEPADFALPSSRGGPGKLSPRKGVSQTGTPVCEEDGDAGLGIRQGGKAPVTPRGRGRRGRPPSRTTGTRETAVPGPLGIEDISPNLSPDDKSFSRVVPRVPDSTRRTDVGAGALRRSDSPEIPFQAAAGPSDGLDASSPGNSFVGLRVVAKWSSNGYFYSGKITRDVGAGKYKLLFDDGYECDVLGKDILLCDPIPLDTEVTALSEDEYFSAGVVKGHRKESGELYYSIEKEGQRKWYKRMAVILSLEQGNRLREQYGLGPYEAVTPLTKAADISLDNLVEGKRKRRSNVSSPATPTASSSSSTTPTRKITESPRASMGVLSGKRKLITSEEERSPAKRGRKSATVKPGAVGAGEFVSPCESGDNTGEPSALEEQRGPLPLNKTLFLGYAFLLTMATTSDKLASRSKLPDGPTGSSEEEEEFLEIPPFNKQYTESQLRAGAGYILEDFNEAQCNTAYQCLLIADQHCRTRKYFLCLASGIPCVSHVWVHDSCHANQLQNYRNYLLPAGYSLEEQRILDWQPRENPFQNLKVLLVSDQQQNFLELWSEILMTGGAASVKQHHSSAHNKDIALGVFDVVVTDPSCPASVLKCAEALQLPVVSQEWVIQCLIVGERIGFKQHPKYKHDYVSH

Target: SFB-tagged human HDGFRP3 (wild type) (human) (UniProt Q9Y3E1)
Assay: affinity purification with mass spectrometry; tandem affinity purification (streptavidin beads, biotin elution, S protein beads) from chromatin fractions of HEK293T cells stably expressing the SFB-tagged bait; also with damaged chromatin fraction

For “53BP1, endogenous (from UniProt Q12888 1-1972)”, the binding was “binds”.

No constants are given. Whether binding was seen depends on the method and setting. Binding seen in cells or lysates may run through a third protein. Here binding means that the protein was enriched with, or labelled near, the bait; the list need not be complete.
